The supplement of paper PMC12764529
± gives the half width of the 95% confidence interval. For many entries, trypsin and chymotrypsin gave values far apart.

Assays:
[1] = folding stability dG unfold from trypsin proteolysis; higher = more stable
Description: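 Folding stability of de novo designed mini-proteins (<80 aa, no Cys; designed by TrROS, TrMRF, ProteinMPNN and the joint model) was measured by cDNA display proteolysis with trypsin and chymotrypsin. Each protease was used at 11 concentrations in a threefold dilution series plus a no-protease condition. K50 was inferred by Bayesian fitting of sequencing counts, and dG unfold was derived against a sequence-predicted unfolded-state K50 (Tsuboyama et al. method). Sequences shown include variable-length N-terminal GS-type padding (SAGGSAGG...) inside a display construct carrying a PA tag. Rows were kept only if the AF2 dimer inter-PAE was >15, to exclude likely homo-oligomers.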

[2] = folding stability dG unfold from chymotrypsin proteolysis; higher = more stable
Summary of the method: (§1)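 Bayesian fitting of sequencing counts gave K50 for each design. Unfolding free energy followed by setting this against a sequence-predicted unfolded-state K50 and a shared folded-state K50, either per protease or with trypsin and chymotrypsin combined. The designs, under 80 residues and lacking cysteine, were digested in a PA-tagged cDNA display format at 11 threefold-diluted protease concentrations and without protease, and only those with AlphaFold2 dimer inter-PAE above 15 were kept.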

[3] = folding stability dG unfold (combined trypsin and chymotrypsin); higher = more stable
Summary of the method: as §1

Row | Sequence | folding stability dG unfold [1] | folding stability dG unfold [2] | folding stability dG unfold [3]
1 | SAGGSAGGSAPEVLPLDFDELVALAGSGEPRLVINEFPDGGYAVFSFTPPDRTIELLDPFPASAGGSAGGSA [r18_400_TrMRF] | 0.302 ± 0.19 kcal/mol | 3.02 ± 0.11 kcal/mol | 2.37 ± 0.29 kcal/mol
2 | SAGGSAGGSMTILEEEVVPETGLVRILVKLPNGELLELEVDPSVGVTPVKVDGKPIFDVTVDPSAGGSAGGS [r12_789_JUSTAS] | 0.898 ± 0.038 kcal/mol | 1.3 ± 0.082 kcal/mol | 1.19 ± 0.11 kcal/mol
3 | SAGKVTGYEDGSVKIEATLKVGDKVYKVTATISPDGSVSVSVEPIEEIPPPPPVPIDSSKPGNKALAESSAG [r5_715_TrMRF] | 0.186 ± 0.073 kcal/mol | 3 ± 0.072 kcal/mol | 2.48 ± 0.32 kcal/mol
4 | SAGGSAGGSAGDNFKIKIESFNIMRLPDGYVMISIKIEITVGDKPVEITIMIIIPPGAPISAGGSAGGSAGG [r17_352_TrROS] | 4.03 ± 0.15 kcal/mol | 5.74 ± 0.18 kcal/mol | 5.68 ± 0.41 kcal/mol
5 | SAGGSAGGMKVLATTEDGEVYLFDLSEFDLSFEEWLNLGEEELAELLRKAFPEKEITLELVEEPSAGGSAGG [r6_164_TrMRF] | 2.5 ± 0.076 kcal/mol | 3.3 ± 0.047 kcal/mol | 3.02 ± 0.077 kcal/mol
6 | SAGGSAGGELTVELEFTLPDGYRVTVRATYRFDPTTNEWTVTRVEVTIEPVPPLPPLDPRGGPDSAGGSAGG [r6_506_TrMRF] | 1.18 ± 0.027 kcal/mol | 4.85 ± 0.07 kcal/mol | 4.51 ± 0.11 kcal/mol
7 | SDVVFDPVILAEFTLPAVPGADGRPRPVRVVLVGIRYLGPADTPPEVFEAVARAVVAELEAAGLPVVVLGGS [r1_305_TrMRF] | 0.846 ± 0.018 kcal/mol | 3.68 ± 0.023 kcal/mol | 3.11 ± 0.04 kcal/mol
8 | SAGGGYRVTFTLTHPDGKTATVTLEFESEEEARAAAEALARAEGWDLVTLTVTPVEPPPSPRPEREGSAGGS [r8_364_JUSTAS] | 1.97 ± 0.073 kcal/mol | 4.29 ± 0.075 kcal/mol | 3.84 ± 0.12 kcal/mol
9 | SAGGSAGGSAGGNWVTIWIPFKMTHYRPDPDGKMYPHKHEMPRPITIPPGQATEDALDKISAGGSAGGSAGG [r7_777_TrROS] | 0.165 ± 0.12 kcal/mol | 0.762 ± 0.14 kcal/mol | 0.595 ± 0.11 kcal/mol
10 | SAGGKAKVIAKAEFTLPNGLKVTVEIVENEDGSLSIKIKIEPVPAPPPEKKVELSEEEKKKLEEAKKSAGGS [r16_6_TrROS_Hall] | 1.01 ± 0.052 kcal/mol | 3.8 ± 0.2 kcal/mol | 3.22 ± 0.12 kcal/mol
11 | SAGGSAGGPTLRLVVRDEDGNLYVFELEEVEDPEGRKYYRLRVTRVTLKDGKLEVETREVTLPVSAGGSAGG [r6_246_TrROS_Hall] | 3.95 ± 0.066 kcal/mol | 6.07 ± 0.086 kcal/mol | 5.96 ± 0.15 kcal/mol
12 | SAGGSAGGSAGGVDPGSDGGVTVDKGDGDLVTLTTTDPNNPGAPVTVTTVPVSAVSPELLSAGGSAGGSAGG [r7_761_JUSTAS] | 1.41 ± 0.049 kcal/mol | -1.5 ± 0.24 kcal/mol | 0.63 ± 0.053 kcal/mol
13 | SAGGSAGGSAGKIKIEKIEKIEIKYNPKTKKYTIRVTLKNGKKVEIEFSSLEEALEALKKSAGGSAGGSAGG [r11_339_TrROS_Hall] | 2.29 ± 0.036 kcal/mol | 4.704 ± 0.04 kcal/mol | 4.35 ± 0.078 kcal/mol
14 | SAGGSAGGSAGEEKEYRIVVPFDSDDPEAFVRAVFDGIPPDVPIKAIDFNPELGYGVVVASAGGSAGGSAGG [r11_698_TrMRF] | 0.364 ± 0.091 kcal/mol | 1.07 ± 0.072 kcal/mol | 0.892 ± 0.11 kcal/mol
15 | SAGGGDPVGRIRRRPVELTLELEVPEGREEVARALAEALRDLGVEVELTRRPDGRVRLRVRFEVGDFESAGG [r13_702_TrMRF] | 1.21 ± 0.031 kcal/mol | 3.82 ± 0.03 kcal/mol | 3.36 ± 0.046 kcal/mol
16 | DDWVTLPVEIWIPVRNPDGKPLTPEQVKETANSIRNELARNHGIDVEVDVKVEPVGPNGYYRINATVTIRPS [r1_231_TrROS] | 2.23 ± 0.1 kcal/mol | 2.98 ± 0.055 kcal/mol | 2.72 ± 0.14 kcal/mol
17 | SDKVEIWIPIPDGFWVRIKYDKPGKREITIWMPEDNPEFRKHGSMDQFIKHLARKLGLDPDKVKVDMYPMSA [r9_401_TrROS] | 3.13 ± 0.1 kcal/mol | 4.11 ± 0.098 kcal/mol | 3.69 ± 0.14 kcal/mol
18 | SLLEDFKITEIEPHQMPGGSPMITFRFGGYTIMINPGNGHYWIWVDGKIIFTIMIPVVPPDPNSPEDRKNSA [r9_1065_TrROS] | 2.69 ± 0.23 kcal/mol | 5.3 ± 0.25 kcal/mol | 4.1 ± 0.55 kcal/mol
19 | SAGMVIRDPGDGKYIYISPGSGEIEIFNDGKEKKIPFPPGEEMEIEIDPDDGTITITFPNNGRELEIPLSAG [r5_858_TrROS] | 0.598 ± 0.049 kcal/mol | 0.846 ± 0.11 kcal/mol | 0.699 ± 0.16 kcal/mol
20 | SAGGSAGGSYWFSITFKINFWVIDGNRIHPVPIEITILIKIPPIPPDEMKPEPTPDGEPKYDFSAGGSAGGS [r12_1031_TrROS] | 2.73 ± 0.15 kcal/mol | 4.64 ± 0.2 kcal/mol | 4.29 ± 0.23 kcal/mol

Row | Sequence | folding stability dG unfold [1] | folding stability dG unfold [2] | folding stability dG unfold [3]
21 | SAGGSAGGSAKKYKVKIEIEKEKKKYKFEFEVSFENIQEIIDAIPKDYKVKITSIEPLEPKSAGGSAGGSAG [r3_195_TrMRF] | 1.62 ± 0.047 kcal/mol | 4.35 ± 0.047 kcal/mol | 4.04 ± 0.16 kcal/mol
22 | SAGGSAKKEKEIYIEIKVKVEKLKNGKLKYYSAEEIAELLKELGFEVEIVEIKETDDYIYIKIKVKSAGGSA [r15_225_TrROS_Hall] | 1.11 ± 0.1 kcal/mol | 3.52 ± 0.19 kcal/mol | 3.33 ± 0.3 kcal/mol
23 | MKVEIKIEYDKETGKLRIEITIKDKNGKELKIEFEVLPNGKVKVKIYDKNGKLVKEIEFDSLEEALKAILSS [r1_478_TrROS_Hall] | 3.39 ± 0.17 kcal/mol | 5.47 ± 0.81 kcal/mol | > 6 kcal/mol
24 | SKKKKKKKKKKPKTVIIEIDVKEMSEEEIREILKKLPKNVKRVIIIAKSEEEKEKLKELLKEAGYEVEIVSA [r9_919_TrROS_Hall] | 1.96 ± 0.18 kcal/mol | 1.94 ± 0.069 kcal/mol | 1.76 ± 0.25 kcal/mol
25 | SAGGSAVTMKVSLMIEIWFFNPDGQLIGPFWIMIEIEVPVKPVPVPPPPPIDPEEMAKKNGMDPEDSAGGSA [r15_572_TrROS] | 1.65 ± 0.042 kcal/mol | 3.82 ± 0.08 kcal/mol | 3.42 ± 0.14 kcal/mol
26 | SAGGKPKKTILIPLIVPPGKPESAIKALAEFLEAKGYELERIEPVPVGDRLRLVAIFRKPDGTEIKVGSAGG [r13_421_TrMRF] | 1.66 ± 0.037 kcal/mol | 1.9 ± 0.11 kcal/mol | 1.78 ± 0.069 kcal/mol
27 | SAGGSAGGSKAKITSVSIVEENGELYISVNVEVEYTDSNGKKHTVKKTFIFKVKPGQSLEDLLSAGGSAGGS [r12_889_TrROS_Hall] | 2.94 ± 0.15 kcal/mol | 5.14 ± 0.14 kcal/mol | 4.93 ± 0.2 kcal/mol
28 | SAGGSAGGSELYLKITIDVPPGATVEEIKEALKKLFPDVEVEVVEENGKLVIYVRVKSEEALKSAGGSAGGS [r20_175_TrROS_Hall] | 2 ± 0.058 kcal/mol | 4.19 ± 0.07 kcal/mol | 3.76 ± 0.091 kcal/mol
29 | SAGGSAPSAKISRIEEKEDFVTVTVEAPPGTVVAIYDPKTGKVSYRPVAPGDTITVPKDAYIVDLTSAGGSA [r15_418_TrMRF] | -0.588 ± 0.15 kcal/mol | 2.25 ± 0.054 kcal/mol | 1.71 ± 0.11 kcal/mol
30 | SAGGSAGGSMKVETLPGEFTITLPNGEEMKLTTEREIRPESGEIRVKITEPGTGKEYEEELPLSAGGSAGGS [r20_71_JUSTAS] | 2.7 ± 0.23 kcal/mol | 0.515 ± 0.13 kcal/mol | 1.25 ± 0.32 kcal/mol
31 | SAGGSAGGSAKVKIKILSKTEDTLTLLIELPDNKVILIKYKIKPTKDGGFELEVTEVIELPSAGGSAGGSAG [r3_116_TrMRF] | 2.6 ± 0.12 kcal/mol | 4.61 ± 0.17 kcal/mol | 4.16 ± 0.2 kcal/mol
32 | SAGGSAGGSAGSNKVVTFVPRDPATGAPLGERPIPINSSSGSEIESIKKELPPEVVEIVESAGGSAGGSAGG [r17_339_JUSTAS] | 0.605 ± 0.044 kcal/mol | 1.15 ± 0.02 kcal/mol | 1.01 ± 0.066 kcal/mol
33 | SAGGSMSTKTLDNAPDDVGTLVTETTTTYDPVTNTTTVTTTTTLVDSAGNVLTPEPSTTTLAPPGSTSAGGS [r8_387_JUSTAS] | -1.21 ± 0.13 kcal/mol | 1.14 ± 0.064 kcal/mol | 0.76 ± 0.07 kcal/mol
34 | SAGGSAGGSAAVVVPAPADTTVTLTLELEFEVPPDWTLPDGTRLKAGEKVRLTVTATFRVEGSAGGSAGGSA [r18_450_TrMRF] | 0.72 ± 0.05 kcal/mol | 3.67 ± 0.093 kcal/mol | 2.96 ± 0.22 kcal/mol
35 | SAGGSAGGSAGGKDKTITKTIKVEVYTLKKDKKTGKWTPTEKFTVTLTVTVKVKPGEKISAGGSAGGSAGGS [r10_610_TrROS_Hall] | 2.16 ± 0.067 kcal/mol | 4.6 ± 0.082 kcal/mol | 4.19 ± 0.15 kcal/mol
36 | SAGGMTIPSSYTLVEEKEELLPNGSKRYTYLIKPPSGDYIVIEVEEPPDGSVKIKEKKLTKEELAKKESAGG [r13_773_JUSTAS] | 0.508 ± 0.04 kcal/mol | 2.82 ± 0.06 kcal/mol | 2.4 ± 0.14 kcal/mol
37 | SAGGAPPPPPVVRIRVKVRDPETGEVREFEIELTAEELEAGLSAEELARLLAEETGREVEIVEVEELSAGGS [r16_554_TrROS_Hall] | 4.77 ± 0.56 kcal/mol | 2.3 ± 0.53 kcal/mol | –
38 | SMTIKIVNEETGEVYEITVDEETGKVTITLPNGEKVEATVVKIEFDEETGELYIYVKETGKVIKIKLEDLSA [r9_325_TrROS_Hall] | 3.2 ± 0.34 kcal/mol | 5.46 ± 0.35 kcal/mol | –
39 | SAGGSAGGPKELEIKIKITEIEYNPNGFYWINYEIEIPGGWKIEIDIMFNPNDGKISLNIHLVPSAGGSAGG [r6_977_TrROS] | 2.26 ± 0.31 kcal/mol | 5.38 ± 0.32 kcal/mol | –
40 | KKYVEITIKIEIKNKDGSTVKIEFKLIKYDEKTKKVYIEMKVEVTNKNGEKKTFTKRFELPLDELKKLLEKS [r1_371_TrROS_Hall] | 1.73 ± 0.16 kcal/mol | 5.81 ± 0.59 kcal/mol | –

Just folding stability dG unfold [1] and folding stability dG unfold [3] (two entries from above):
Row,Sequence,folding stability dG unfold [1],folding stability dG unfold [3]
6,SAGGSAGGELTVELEFTLPDGYRVTVRATYRFDPTTNEWTVTRVEVTIEPVPPLPPLDPRGGPDSAGGSAGG [r6_506_TrMRF],1.18 ± 0.027 kcal/mol,4.51 ± 0.11 kcal/mol
7,SDVVFDPVILAEFTLPAVPGADGRPRPVRVVLVGIRYLGPADTPPEVFEAVARAVVAELEAAGLPVVVLGGS [r1_305_TrMRF],0.846 ± 0.018 kcal/mol,3.11 ± 0.04 kcal/mol
